Data as given in PubChem BioAssay AID504764 (Drosophila RNAi Screening Center, 2011).
In all, the deposit lists about 22,000 reagents; this is an unselected part of those with a known target gene and a result. Over the whole deposit, 403 (1.9%) are marked active. 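Unnormalised raw counts per well; ratio z-scores behind the hit calls and whether each hit raises or lowers signal are not deposited.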 Reagents against one gene are numbered here. A plus sign joins genes that one reagent is predicted to hit. Not stated in the record: the amount of reagent.

- Screen: 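Genes whose knock-down alters Notch-dependent transcription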 (primary screen)
- Cells: Drosophila Kc167 cells
- Knock-down reagent: long dsRNA against Drosophila genes
- Time to read-out: about 5 days (4 days dsRNA, then 24 h after transfection)
- Treatment: transfection of constitutively active membrane-tethered Notch lacking the extracellular domain, read 24 h later
- Read-out: 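Firefly luciferase from an E(spl)m3 reporter with active Notch, plus control-promoter and uninduced reporter wells for normalisation; unnormalised counts, duplicate wells a and b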
- Scale: induced reporter light, run 1, well a and induced reporter light, run 1, well b: higher = more light from the Notch target reporter with active Notch; control promoter light, run 1, well a and control promoter light, run 1, well b: higher = more light from the viral control promoter (cell number, transfection, viability); uninduced reporter light, run 1, well a: higher = more light from the Notch target reporter without active Notch
- Hit rule: 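Wells with low control signal or poorly matching duplicates excluded; duplicates averaged; per source plate, z beyond ±2 for induced/control log2 ratio or beyond ±1.8 for induced/uninduced marks a hit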
- Meaning of the calls: active = modifier hit (raised or lowered Notch signal); inactive = not a hit

The first 3 records, ahead of the listing:
predicted target	reagent no.	induced reporter light, run 1, well a	induced reporter light, run 1, well b	control promoter light, run 1, well a	control promoter light, run 1, well b	uninduced reporter light, run 1, well a	Outcome
CG17768 + LSm-4	1	98575	1.11e5	51870	67505	9310	inactive
CG17776	1	1.12e5	1.14e5	1.78e5	1.72e5	7538	inactive
Blimp-1	1	2.29e5	2.62e5	2.83e5	2.08e5	12435	inactive

The list itself, from the start:
predicted target	reagent no.	induced reporter light, run 1, well a	induced reporter light, run 1, well b	control promoter light, run 1, well a	control promoter light, run 1, well b	uninduced reporter light, run 1, well a	Outcome
CG17768 + LSm-4	1	98575	1.11e5	51870	67505	9310	inactive
CG17776	1	1.12e5	1.14e5	1.78e5	1.72e5	7538	inactive
Blimp-1	1	2.29e5	2.62e5	2.83e5	2.08e5	12435	inactive
Ilp7	1	1.84e5	1.79e5	3.24e5	3.57e5	11935	inactive
Sclp	1	2.46e5	2.13e5	2.94e5	3.30e5	16205	inactive
Hcs	1	1.76e5	1.86e5	1.48e5	1.57e5	12900	inactive
Hcs	2	74940	70120	67955	47970	5800	inactive
HDAC1	1	1.40e5	1.11e5	53165	30045	11210	active
PCNA2	1	23415	26625	28405	26710	1770	inactive
CG14609	1	1.21e5	1.30e5	1.33e5	1.07e5	11420	inactive
amos	1	54180	45480	51765	43450	3730	inactive
Vha14-1	1	1.02e5	84035	1.17e5	1.15e5	7650	inactive
IM33	1	73400	54310	59635	60465	3655	inactive
CG3342	1	2.10e5	2.09e5	2.30e5	2.38e5	13910	inactive
GlcAT-S	1	2.55e5	2.54e5	2.55e5	2.73e5	17855	inactive
hb	1	1.16e5	1.09e5	45700	48315	11778	inactive
Pp2C1	1	1.62e5	1.07e5	1.84e5	1.77e5	12690	inactive
DopEcR	1	1.45e5	1.64e5	1.08e5	42540	13005	inactive
CG42531	1	1.88e5	2.18e5	3.18e5	3.20e5	15538	inactive
drk	1	1.08e5	87325	33975	36170	10415	inactive
CG4066	1	73570	70195	87990	71880	3815	inactive
lky	1	1.01e5	1.06e5	88775	1.09e5	9405	inactive
ND4 (retired record)	1	93895	1.09e5	95285	1.18e5	10240	inactive
Prp38	1	1.68e5	1.64e5	1.35e5	1.29e5	10495	inactive
CG5151	1	37065	53690	33265	41185	4910	inactive
CG1943	1	79390	92670	99330	62530	6020	inactive
Lcp65Ag3	1	1.76e5	1.72e5	1.65e5	1.49e5	6120	inactive
sphinx1	1	1.73e5	1.69e5	1.88e5	1.84e5	7615	inactive
Theg	1	1.68e5	1.83e5	2.60e5	2.67e5	16655	inactive
U2af50	1	74740	83245	97500	81315	3850	inactive
Or92a	1	1.32e5	1.59e5	2.38e5	2.01e5	12620	inactive
msn	1	2.60e5	2.08e5	2.81e5	3.01e5	14690	inactive
msn	2	1.19e5	93470	1.73e5	1.41e5	4960	inactive
Ran-like	1	1.47e5	1.26e5	1.00e5	1.05e5	10685	inactive
t-Grip128	1	1.96e5	1.80e5	1.93e5	1.72e5	12330	inactive
CG13151	1	1.11e5	1.18e5	1.73e5	1.15e5	10480	inactive
CG4678	1	73865	59615	1.03e5	64525	9570	inactive
CG4678	2	85235	61045	62525	47945	9310	inactive
geminin	1	33300	29375	28720	39880	1755	inactive
CG30414	1	2.19e5	1.82e5	2.06e5	1.68e5	13610	inactive
CG11180	1	89195	78480	1.40e5	1.64e5	7505	inactive
CG16896	1	1.99e5	2.00e5	2.31e5	2.20e5	14745	inactive
CG31686 (retired record)	1	1.13e5	88895	1.19e5	1.29e5	7480	inactive
EndoA	1	2.80e5	2.72e5	3.16e5	3.70e5	16030	inactive
CG14329	1	2.11e5	2.23e5	2.44e5	2.46e5	19535	inactive
Cyp6d4	1	1.81e5	1.96e5	2.06e5	2.13e5	11915	inactive
CG30016	1	2.21e5	2.59e5	3.18e5	3.10e5	26485	inactive
Ccdc58 + CG34116	1	1.35e5	1.59e5	1.33e5	1.21e5	25685	inactive
Sym	1	50260	52720	27180	24335	3485	inactive
CG2915	1	1.40e5	1.31e5	1.45e5	1.22e5	11700	inactive
